# Primary screen of a compound library

Protein sequences, listed by entry. Tags and fused reporters are not part of them.
UniProt E9BF75, entry or part of it: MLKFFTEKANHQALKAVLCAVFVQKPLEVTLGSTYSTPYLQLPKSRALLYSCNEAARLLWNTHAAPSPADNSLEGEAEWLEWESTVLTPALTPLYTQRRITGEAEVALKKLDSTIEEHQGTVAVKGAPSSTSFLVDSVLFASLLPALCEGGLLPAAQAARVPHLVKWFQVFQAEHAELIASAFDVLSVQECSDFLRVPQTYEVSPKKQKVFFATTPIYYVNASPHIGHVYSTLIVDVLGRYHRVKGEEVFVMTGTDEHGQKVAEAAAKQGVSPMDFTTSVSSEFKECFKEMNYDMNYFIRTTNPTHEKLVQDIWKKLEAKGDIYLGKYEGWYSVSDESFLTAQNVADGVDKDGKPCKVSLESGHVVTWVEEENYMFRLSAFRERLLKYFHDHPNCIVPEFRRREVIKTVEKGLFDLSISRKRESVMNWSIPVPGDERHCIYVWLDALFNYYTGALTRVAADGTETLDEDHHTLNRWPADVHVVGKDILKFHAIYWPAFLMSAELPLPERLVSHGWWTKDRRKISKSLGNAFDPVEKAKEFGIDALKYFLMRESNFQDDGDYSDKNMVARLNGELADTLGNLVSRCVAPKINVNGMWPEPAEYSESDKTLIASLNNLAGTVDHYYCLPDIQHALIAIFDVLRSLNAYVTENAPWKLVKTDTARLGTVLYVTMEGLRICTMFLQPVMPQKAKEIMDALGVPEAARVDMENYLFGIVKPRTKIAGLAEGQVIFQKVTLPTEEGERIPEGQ

A: 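Methionyl-tRNA synthetase (putative), Leishmania donovani (UniProt E9BF75). Primary screen of methionyl-tRNA synthetase; the read-out is not stated. The test concentration is not given. Values are per cent inhibition. Of about 68,000 compounds tested this way, about 24 (0.035%) reached 50% or more in at least one test.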
B: 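Assay on Mycobacterium tuberculosis, filed only as a heat shock assay from Cornell; the read-out is not stated. The concentration is filed as 10 mM, unlikely as a test dose, so the dose is not known. Direction is inferred from retests: higher values go with stronger inhibition. Of about 69,000 compounds tested this way, about 930 (1.4%) reached 50% or more in at least one test.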

Results are percentages, as filed. The controls that fix the scale are not given in the record; negative values are as filed. Compounds were drawn at random from those tested, without regard to their results. A dash means the value is not listed here; it may have been measured.

compound | A | B
CN(Cc1cccnc1)Cc1cncc2c1CCN(Cc1ccoc1)C2 | 12.92 | -
COCCn1ccc(=O)c(OCC(=O)Nc2ccc(Br)cc2)c1C | 19.9 | 17.79
COCCN1CCc2c(cnc(-c3ccoc3)c2C(=O)O)C1 | 7.843 | -
Cc1cc(Nc2cnccn2)cc(C2CCCNC2)n1 (stereo not drawn) | 7.233 | -31.38
O=C(NCCn1ccnc1)N1CCN(Cc2cccnc2)CC1 | 18.75 | 3.49
CC(Cn1ccnc1)NC(=O)C1(c2ccccc2)CC1 (stereo not drawn) | 17.88 | -7.979
O=C(O)C(F)(F)F.O=C(O)C(F)(F)F.[H][C@@]12CN(Cc3ccncc3)CCC[C@]1(C(=O)O)CN(c1ncccn1)C2 | - | -1.401
[H][C@]12C[C@H](C(=O)NC)N(S(C)(=O)=O)[C@@]1([H])CN(C(=O)c1ccoc1)C2 | - | 8.236
[H][C@@]12CN(C(=O)CCOC)C[C@]1([H])C(=O)N(Cc1cccc(C)c1)C2 | - | -10.62
O=C([C@@H]1C[C@@H]2CCN(C3CCOCC3)C[C@H]2O1)N1CCCC1 | 14.72 | -
O=C(O)C(F)(F)F.[H][C@@]12C[C@H](C(=O)N3CCN(C)CC3)[C@@]([H])(CN(S(=O)(=O)CCC)C1)O2 | - | -6.677
CC1(C)CN(C(=O)CC2CCS(=O)(=O)CC2)C[C@]1(C)O | 14.17 | 3.641
CCOC(=O)C1CCN(C(=O)CN2CCCC2c2cc(C)no2)CC1 (stereo not drawn) | 5.163 | -0.8875
O=C1CN(C(=O)c2cc(-c3ccco3)nc3c(Cl)cccc23)CCN1 | 14.63 | 26.32
CCc1nc(CC(=O)N2CCCC2c2c(C)nn(C)c2OC)cs1 (stereo not drawn) | 9.972 | -6.716
Cc1cc(C)n(CC2CCCN2C(=O)c2ccc3c(c2)nnn3C)n1 (stereo not drawn) | 11.33 | -4.273
CCCn1nnc(NCc2ccc(-c3ccc(Br)cc3)o2)n1 | -13.67 | 3.777
OCCOCCN1CCCC1c1nc2cc(F)ccc2[nH]1 (stereo not drawn) | 4.5 | -13.77
Cc1ccc(C(=O)N2C[C@@H]3CN(S(C)(=O)=O)CCO[C@@H]3C2)s1 | 12.8 | -
Cc1cccc2c1nc(COCC(=O)O)n2-c1ccsc1 | 11.69 | 11.8
CCN(CC)c1nc(C)cc(C(=O)Nc2cnn(CC)c2)n1 | 19.35 | 3.625
CN1CC2(CCCN(c3cnccn3)C2)OC1=O (stereo not drawn) | 14.44 | 5.828
CCSc1cc(C(=O)NC(C)c2cccc(N3CCOC3=O)c2)ccn1 (stereo not drawn) | 6.969 | -16.93
O=C(CNC(=O)C1CC1)NCCOc1cccc(Cl)c1Cl | 3.846 | -19.62
CCC(O)CNC(=O)c1coc(COc2ccc3sc(C)nc3c2)n1 (stereo not drawn) | 0.4926 | -8.332
NC(=O)C1CCN(C(=O)NCc2ccccc2Cn2ccnc2)CC1 | 6.355 | -32.01
Cn1ncc2c(N[C@H]3CCCC[C@@H]3O)nc(C(C)(C)C)nc21 | 16.42 | -14.45
Cc1ccc(Oc2ncccc2C(=O)N(C)CCCN(C)C)c(C)c1 | 1.944 | 17.55
Cc1noc(CCCC(=O)Nc2cc(C(F)(F)F)c[nH]c2=O)n1 | 10.56 | -22.58
Cc1nc(CN2C(=O)C[C@@H]3[C@@H]2CCN3C(=O)C2CCOCC2)cs1 | 8.5 | -
Fc1cccc(N2CCCC3(CN(Cc4ccco4)CCO3)C2)c1 (stereo not drawn) | 17.58 | -
[H][C@@]12COC[C@H](c3nc(C)no3)[C@]1([H])CN(C(=O)Cc1cccs1)C2 | - | -41.91
Cc1ccccc1-n1cc(CNc2ncnc3c2CCNCC3)cn1 | 19.89 | -3.363
COc1ccc(CC(=O)N2CCC(c3n[nH]c(C4CC4)n3)CC2)cc1 | 12.9 | -6.907
CCCc1nc(CN2CCCC2Cn2cncn2)no1 (stereo not drawn) | 13.68 | 1.913
Cc1cccc2nc(CSCC(=O)Nc3nnc(C(C)C)s3)cc(=O)n12 | 3.753 | -7.801
CN1CCN(c2cc(CNC(=O)c3ccc(Cl)o3)ccn2)CC1 | 19.47 | -25.04
O=C(c1ccc2[nH]nnc2c1)N1CCC(Nc2cccnn2)CC1 | 8.262 | -21.38
CC1CCN(S(=O)(=O)NCC2CCOc3ccccc3C2)CC1 (stereo not drawn) | 14.96 | -10.05
COc1ccnc(N2CCN(Cc3ncc(C(C)(C)C)o3)CC2)n1 | -4.076 | -7.541
Cn1ncnc1-c1ccnc(NCc2ccccn2)n1 | 6.186 | -20.65

For reference, 2 entries once more:

- CCC(O)CNC(=O)c1coc(COc2ccc3sc(C)nc3c2)n1 (stereo not drawn) | A: 0.4926%; B: -8.332%
- O=C(CNC(=O)C1CC1)NCCOc1cccc(Cl)c1Cl | A: 3.846%; B: -19.62%

Data taken from ChEMBL document CHEMBL3988442, “University of Dundee, Small-Polar-MMV Screening Library” (2021).